# Data reported in US20210322452A1, “COGNITIVE FUNCTION IMPROVING COMPOSITION COMPRISING NOVEL POST FERMENTED TEA-DERIVED KAEMPFEROL-BASED COMPOUND” (AMOREPACIFIC CORPORATION, priority 2016, published 2021).
# By UniProt entry, the sequences of proteins in these tests, tags left out. Residues count along the entry.
# UniProt P05067, 672-713 limits assumed: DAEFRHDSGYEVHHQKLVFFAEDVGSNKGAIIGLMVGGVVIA
# At least one compound was matched to its structure with a doubt left.
# Molecular target: T1, beta amyloid (Aβ1-42) (Homo sapiens, UniProt P05067)
# T1 construct: beta amyloid (Aβ1-42, AnaSpec Inc., USA) was obtained; purchased AnaSpec Inc., USA
# Experiment: Inhibition of beta amyloid aggregation, fluorescence analysis (ThioflavinT assay)
# Format: biochemical
# Details: compound 10 μM, Aβ1-42 0.1 mg/ml, 37° C., 150 minutes
# Experimental: The effect of kaempferol3-O-[2-O″-(E)-p-coumaroyl][beta-D-glucopyranosyl-(1→3)-O-alpha-L-rhamnopyranosyl-(1→6)-O-beta-D-glucopyranoside] on inhibition of beta amyloid aggregation was confirmed by the fluorescence analysis (ThioflavinT assay).
# Specifically, beta amyloid (Aβ1-42, AnaSpec Inc., USA) was obtained and used at a concentration of 0.1 mg/ml and stored at −80° C. before use. Morin (20 μM), phenol red (20 μM), and kaempferol3-O-[2-O″-(E)-p-coumaroyl][beta-D-glucopyranosyl-(1→3)-O-alpha-L-rhamnopyranosyl-(1→6)-O-beta-D-glucopyranoside] (1 mg/ml) were respectively diluted with DMSO so as to be adjusted to the concentrations.
# In order to specify the degree of inhibition of Aβ1-42 aggregation, each of the compounds prepared at the above concentrations was diluted with 50 μL of 0.01 M sodium phosphate buffer solution to have a concentration of 10 μM, then 40 μL of 0.1 mg/ml of Aβ1-42 was added thereto, and then 10 μl of 2 mM thioflavinT was added thereto, and fluorescence was measured using a fluorescence spectrometer (RF-5300PC, SHIMADZU CORPORATION, Japan) at 37° C. for 150 minutes at intervals of 5 minutes.
compound,measurement,value
O=S1(=O)OC(c2ccc(O)cc2)(c2ccc(O)cc2)c2ccccc21 [Phenol Red],Increased RFU (amount of aggregated beta amyloid),13655 RFU
